These are yes or no findings as the source states them, for the method shown. Some results given as binding are weak or reduced against the parent protein; the word gives no strength.
Target: Streptococcus pneumoniae surface adhesin A (PsaA) protein (Streptococcus pneumoniae) (UniProt P0A4G2)
Assay: Western blot on S. pneumoniae lysates, Ab 2 µg/ml

By UniProt entry, the sequences of proteins in these tests, tags left out. Where a name states a change or a piece, a line headed by the entry shows the natural chain unless it says otherwise.
UniProt P0A4G2: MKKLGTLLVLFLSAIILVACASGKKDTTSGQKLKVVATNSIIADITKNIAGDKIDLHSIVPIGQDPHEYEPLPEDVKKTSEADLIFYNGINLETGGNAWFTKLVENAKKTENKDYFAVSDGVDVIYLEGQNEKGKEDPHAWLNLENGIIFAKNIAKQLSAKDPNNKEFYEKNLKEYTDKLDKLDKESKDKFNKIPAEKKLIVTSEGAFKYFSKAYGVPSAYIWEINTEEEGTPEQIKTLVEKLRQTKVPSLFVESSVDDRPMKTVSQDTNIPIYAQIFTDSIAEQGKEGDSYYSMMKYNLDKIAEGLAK

B1: Anti-PsaA 7-1G9 (antibody, V domains shown)
VH: QVRLQQWGAGLLKPSETLSLTCAVFGGSFSGFSWSWIRQTPGKGLEWIGEIDYRGSTNYNPSLKSRVTILRDTSRSQFSLKLSSVTAADSAVFYCARGGPRFDYWGQGTLVTVSS
VL: DIQMTQSPSSLSASVGDRVTITCRASQGISSWLAWYQQKPEKAPESLIYVASSLQSGVPSRFSGSGSGTDFTLTISSLQPEDFATYYCQQYNSYPPTFGQGTKVEIK
binding: binds

Source: patent publication US20070003561A1
